No constants are given. Whether binding was seen depends on the method and setting. For some assays here: In cells and extracts the contact can be indirect. Some results given as binding are weak or reduced against the parent protein; the word gives no strength. For some assays here: Tags and fused reporters may be left off the sequences shown.
Tests used:
LZTR1-GFP (human) = molecular target: T1, LZTR1-GFP (human) (UniProt Q8N653); experiment: co-immunoprecipitation with FLAG affinity matrix, 293T cells, western blot
T1 sequence (looked up): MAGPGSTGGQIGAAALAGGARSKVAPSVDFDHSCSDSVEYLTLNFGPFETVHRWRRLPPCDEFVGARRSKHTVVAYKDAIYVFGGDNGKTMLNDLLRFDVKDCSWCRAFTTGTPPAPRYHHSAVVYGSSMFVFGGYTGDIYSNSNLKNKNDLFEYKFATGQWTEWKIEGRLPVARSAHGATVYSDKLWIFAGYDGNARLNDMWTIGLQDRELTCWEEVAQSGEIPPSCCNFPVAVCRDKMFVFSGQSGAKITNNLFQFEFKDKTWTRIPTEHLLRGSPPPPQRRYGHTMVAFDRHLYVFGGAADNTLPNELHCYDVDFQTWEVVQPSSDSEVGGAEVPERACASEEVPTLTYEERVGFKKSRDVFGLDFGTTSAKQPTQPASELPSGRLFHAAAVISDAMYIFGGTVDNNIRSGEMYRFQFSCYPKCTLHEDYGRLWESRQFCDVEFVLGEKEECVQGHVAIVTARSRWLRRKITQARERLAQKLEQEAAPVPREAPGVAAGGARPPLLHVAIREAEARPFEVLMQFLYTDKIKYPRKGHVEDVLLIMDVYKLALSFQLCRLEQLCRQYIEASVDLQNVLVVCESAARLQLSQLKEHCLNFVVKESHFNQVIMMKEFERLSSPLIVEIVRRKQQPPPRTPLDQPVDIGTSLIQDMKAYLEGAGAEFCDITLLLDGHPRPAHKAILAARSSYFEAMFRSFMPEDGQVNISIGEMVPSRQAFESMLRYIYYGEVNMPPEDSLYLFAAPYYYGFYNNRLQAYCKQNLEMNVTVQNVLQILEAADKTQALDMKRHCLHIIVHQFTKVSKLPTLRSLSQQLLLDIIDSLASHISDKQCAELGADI

Amino acid sequences for entries named in this document (tags omitted). Residues count along the entry.
UniProt P35555, residues 45-2731: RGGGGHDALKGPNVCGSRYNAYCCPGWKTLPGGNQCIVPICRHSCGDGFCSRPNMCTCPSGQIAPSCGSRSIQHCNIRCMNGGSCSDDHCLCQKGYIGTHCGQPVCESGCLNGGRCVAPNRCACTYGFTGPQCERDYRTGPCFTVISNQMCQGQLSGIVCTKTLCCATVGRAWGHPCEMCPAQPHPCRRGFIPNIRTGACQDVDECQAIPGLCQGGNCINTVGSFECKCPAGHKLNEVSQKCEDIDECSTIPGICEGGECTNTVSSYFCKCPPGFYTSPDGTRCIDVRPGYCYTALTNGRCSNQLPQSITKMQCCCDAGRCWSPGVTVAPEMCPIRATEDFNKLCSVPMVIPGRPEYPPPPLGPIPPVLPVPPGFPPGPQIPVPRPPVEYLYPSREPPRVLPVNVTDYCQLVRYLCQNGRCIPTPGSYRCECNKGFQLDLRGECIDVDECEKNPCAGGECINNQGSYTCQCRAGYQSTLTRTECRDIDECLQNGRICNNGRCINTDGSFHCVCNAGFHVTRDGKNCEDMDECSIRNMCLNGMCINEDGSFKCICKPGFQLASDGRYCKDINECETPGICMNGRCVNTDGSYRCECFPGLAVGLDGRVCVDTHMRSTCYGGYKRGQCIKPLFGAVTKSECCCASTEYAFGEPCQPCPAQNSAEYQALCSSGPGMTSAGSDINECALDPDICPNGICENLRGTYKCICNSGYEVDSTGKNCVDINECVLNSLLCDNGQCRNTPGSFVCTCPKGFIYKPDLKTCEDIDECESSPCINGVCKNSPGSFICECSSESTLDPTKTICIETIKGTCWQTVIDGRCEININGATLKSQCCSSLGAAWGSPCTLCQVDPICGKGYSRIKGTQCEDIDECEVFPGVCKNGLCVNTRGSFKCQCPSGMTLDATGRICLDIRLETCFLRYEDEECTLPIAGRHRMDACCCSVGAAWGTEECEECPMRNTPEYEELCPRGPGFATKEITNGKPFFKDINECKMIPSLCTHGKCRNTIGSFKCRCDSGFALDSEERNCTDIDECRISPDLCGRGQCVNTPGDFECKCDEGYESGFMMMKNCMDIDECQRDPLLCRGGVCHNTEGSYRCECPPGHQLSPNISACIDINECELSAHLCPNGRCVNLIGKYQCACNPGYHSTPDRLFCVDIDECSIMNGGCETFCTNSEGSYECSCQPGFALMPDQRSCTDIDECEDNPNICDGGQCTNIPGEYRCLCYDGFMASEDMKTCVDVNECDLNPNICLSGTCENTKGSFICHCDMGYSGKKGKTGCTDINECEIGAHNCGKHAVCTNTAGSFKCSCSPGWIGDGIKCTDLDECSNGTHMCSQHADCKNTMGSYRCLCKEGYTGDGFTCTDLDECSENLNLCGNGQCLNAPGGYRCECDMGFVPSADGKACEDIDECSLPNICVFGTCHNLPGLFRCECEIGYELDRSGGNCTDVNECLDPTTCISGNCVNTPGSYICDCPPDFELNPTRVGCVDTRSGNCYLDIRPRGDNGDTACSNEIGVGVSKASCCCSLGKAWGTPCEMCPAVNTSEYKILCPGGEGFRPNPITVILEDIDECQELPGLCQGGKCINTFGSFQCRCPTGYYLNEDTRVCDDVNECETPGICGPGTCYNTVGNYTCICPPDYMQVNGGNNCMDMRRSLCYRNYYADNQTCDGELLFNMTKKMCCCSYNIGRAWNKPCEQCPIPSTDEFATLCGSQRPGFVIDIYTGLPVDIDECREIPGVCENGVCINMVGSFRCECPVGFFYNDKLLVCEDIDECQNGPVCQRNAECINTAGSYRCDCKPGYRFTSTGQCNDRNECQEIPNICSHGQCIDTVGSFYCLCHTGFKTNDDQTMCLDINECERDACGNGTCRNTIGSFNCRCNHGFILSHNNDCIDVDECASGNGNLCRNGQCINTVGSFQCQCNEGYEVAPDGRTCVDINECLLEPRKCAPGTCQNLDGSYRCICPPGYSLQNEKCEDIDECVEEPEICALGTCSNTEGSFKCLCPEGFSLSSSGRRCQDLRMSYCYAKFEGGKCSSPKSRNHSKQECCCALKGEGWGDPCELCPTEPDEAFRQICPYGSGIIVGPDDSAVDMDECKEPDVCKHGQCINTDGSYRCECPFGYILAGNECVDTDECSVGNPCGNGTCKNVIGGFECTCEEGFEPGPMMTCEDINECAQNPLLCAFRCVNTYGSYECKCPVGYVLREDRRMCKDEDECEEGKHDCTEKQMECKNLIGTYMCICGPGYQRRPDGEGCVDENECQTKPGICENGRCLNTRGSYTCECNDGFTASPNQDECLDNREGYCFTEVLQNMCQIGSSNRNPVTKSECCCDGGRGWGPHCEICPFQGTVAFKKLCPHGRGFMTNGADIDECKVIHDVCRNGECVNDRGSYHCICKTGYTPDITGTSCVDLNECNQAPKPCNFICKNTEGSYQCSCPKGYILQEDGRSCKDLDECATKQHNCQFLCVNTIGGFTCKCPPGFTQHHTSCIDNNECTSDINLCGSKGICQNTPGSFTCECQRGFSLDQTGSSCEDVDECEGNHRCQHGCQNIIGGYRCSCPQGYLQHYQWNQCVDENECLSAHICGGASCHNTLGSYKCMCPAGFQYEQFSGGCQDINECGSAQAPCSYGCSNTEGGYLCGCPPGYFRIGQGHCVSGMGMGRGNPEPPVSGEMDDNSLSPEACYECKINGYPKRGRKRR
UniProt O60318: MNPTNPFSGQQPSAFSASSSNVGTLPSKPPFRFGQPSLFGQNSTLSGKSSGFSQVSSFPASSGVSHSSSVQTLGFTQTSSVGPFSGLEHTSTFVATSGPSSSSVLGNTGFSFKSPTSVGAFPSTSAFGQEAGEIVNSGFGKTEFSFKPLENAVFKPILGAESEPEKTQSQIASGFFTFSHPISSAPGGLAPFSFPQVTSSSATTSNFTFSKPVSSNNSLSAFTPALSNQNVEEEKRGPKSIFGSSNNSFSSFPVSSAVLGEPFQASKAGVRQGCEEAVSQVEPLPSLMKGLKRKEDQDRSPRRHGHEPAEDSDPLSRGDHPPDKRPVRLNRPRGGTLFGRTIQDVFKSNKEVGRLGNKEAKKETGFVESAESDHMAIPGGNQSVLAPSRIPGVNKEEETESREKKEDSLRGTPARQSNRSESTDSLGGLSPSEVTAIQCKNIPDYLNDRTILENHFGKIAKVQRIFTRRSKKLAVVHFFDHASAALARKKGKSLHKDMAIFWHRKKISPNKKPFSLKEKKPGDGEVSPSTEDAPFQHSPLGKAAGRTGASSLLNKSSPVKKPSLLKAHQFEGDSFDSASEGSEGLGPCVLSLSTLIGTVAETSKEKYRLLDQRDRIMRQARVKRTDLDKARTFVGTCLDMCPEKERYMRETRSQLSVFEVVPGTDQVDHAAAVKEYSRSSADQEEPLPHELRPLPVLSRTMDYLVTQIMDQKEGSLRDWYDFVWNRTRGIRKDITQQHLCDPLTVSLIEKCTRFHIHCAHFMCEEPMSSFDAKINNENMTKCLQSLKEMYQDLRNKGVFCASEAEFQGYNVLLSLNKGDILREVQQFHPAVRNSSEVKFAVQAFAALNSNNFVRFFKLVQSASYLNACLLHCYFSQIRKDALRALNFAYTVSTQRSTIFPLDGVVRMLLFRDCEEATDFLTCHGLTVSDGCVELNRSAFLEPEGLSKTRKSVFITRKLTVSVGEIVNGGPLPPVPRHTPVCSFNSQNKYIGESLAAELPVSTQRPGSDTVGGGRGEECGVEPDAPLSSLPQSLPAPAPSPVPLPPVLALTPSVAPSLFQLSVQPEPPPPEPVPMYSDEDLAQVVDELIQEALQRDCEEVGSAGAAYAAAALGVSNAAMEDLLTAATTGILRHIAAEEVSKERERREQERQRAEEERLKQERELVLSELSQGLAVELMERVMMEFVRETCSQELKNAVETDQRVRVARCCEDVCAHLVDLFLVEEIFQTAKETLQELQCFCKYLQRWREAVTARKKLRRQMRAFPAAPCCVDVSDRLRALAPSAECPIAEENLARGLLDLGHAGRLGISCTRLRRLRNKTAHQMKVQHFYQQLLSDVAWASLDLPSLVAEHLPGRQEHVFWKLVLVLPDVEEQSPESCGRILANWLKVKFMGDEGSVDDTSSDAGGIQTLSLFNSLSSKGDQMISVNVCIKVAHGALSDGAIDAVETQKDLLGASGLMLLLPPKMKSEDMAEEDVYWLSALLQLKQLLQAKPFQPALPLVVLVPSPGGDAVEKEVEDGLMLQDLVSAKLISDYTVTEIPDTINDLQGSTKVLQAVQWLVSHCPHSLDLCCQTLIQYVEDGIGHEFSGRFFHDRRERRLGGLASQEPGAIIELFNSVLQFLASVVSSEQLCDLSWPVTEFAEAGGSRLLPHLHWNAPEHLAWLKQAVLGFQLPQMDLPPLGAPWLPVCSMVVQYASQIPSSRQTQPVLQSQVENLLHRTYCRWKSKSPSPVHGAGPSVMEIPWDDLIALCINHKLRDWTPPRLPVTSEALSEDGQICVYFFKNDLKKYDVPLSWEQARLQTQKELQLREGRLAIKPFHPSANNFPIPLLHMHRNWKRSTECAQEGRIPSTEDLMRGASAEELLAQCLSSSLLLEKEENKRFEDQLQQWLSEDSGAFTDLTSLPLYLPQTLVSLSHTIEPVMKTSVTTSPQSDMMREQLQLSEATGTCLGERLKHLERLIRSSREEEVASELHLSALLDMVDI
UniProt P29590: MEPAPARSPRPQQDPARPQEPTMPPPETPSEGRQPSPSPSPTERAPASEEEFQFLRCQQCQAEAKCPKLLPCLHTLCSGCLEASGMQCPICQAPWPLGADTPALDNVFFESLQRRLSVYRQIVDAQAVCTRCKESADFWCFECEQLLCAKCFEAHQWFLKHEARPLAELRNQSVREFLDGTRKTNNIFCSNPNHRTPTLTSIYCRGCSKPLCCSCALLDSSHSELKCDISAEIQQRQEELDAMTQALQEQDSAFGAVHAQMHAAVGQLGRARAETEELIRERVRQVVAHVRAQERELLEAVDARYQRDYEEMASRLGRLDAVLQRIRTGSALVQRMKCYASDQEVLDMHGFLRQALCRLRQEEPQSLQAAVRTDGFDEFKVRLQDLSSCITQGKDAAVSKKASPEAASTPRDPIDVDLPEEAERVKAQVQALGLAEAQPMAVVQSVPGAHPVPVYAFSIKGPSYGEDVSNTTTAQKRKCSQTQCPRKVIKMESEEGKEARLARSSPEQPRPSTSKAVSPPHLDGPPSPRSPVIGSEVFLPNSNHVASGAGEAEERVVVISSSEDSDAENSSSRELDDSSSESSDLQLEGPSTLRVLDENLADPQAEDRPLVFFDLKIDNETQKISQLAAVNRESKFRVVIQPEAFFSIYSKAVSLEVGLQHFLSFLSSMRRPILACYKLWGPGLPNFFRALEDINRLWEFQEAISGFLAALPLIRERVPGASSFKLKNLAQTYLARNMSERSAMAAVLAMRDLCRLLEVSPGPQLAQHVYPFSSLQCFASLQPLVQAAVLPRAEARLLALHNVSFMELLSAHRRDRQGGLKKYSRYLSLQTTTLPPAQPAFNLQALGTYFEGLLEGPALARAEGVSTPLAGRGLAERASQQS
UniProt Q92963: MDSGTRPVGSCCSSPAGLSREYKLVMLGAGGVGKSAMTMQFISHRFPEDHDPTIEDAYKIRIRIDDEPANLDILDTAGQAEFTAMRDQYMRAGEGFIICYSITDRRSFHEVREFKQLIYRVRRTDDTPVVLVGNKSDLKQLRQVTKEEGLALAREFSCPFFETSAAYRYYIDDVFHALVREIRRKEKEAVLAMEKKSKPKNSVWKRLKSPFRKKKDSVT

FASTKD2 (human) = molecular target: T2, FASTKD2 (human) (UniProt Q9NYY8); experiment: IP/MS, LZTR1 R810W-FLAG, U87
T2 sequence (looked up): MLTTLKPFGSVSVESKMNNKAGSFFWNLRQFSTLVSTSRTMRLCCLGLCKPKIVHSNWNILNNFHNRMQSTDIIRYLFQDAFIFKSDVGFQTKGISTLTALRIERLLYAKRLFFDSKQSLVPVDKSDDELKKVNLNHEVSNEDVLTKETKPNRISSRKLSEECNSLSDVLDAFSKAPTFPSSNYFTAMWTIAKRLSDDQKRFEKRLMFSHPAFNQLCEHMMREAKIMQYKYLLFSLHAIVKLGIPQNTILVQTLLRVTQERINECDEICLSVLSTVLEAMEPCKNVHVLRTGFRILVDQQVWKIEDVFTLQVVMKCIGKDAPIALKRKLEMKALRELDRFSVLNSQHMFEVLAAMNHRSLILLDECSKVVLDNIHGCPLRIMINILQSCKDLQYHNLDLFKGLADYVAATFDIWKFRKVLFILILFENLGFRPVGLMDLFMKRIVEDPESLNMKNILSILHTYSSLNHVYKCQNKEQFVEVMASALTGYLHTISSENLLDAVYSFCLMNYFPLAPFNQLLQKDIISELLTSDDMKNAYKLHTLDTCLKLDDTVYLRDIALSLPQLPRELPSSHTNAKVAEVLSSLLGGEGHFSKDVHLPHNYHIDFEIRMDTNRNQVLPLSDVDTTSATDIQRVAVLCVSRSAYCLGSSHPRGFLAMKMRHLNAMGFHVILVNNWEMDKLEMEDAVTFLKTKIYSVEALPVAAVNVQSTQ

FBN1 (human) = FBN1 (human) (UniProt P35555); experiment: IP/MS, LZTR1 R810W-FLAG, U87
MCM3AP (human) = MCM3AP (human) (UniProt O60318); experiment: IP/MS, LZTR1 R810W-FLAG, U87
PML (human) = PML (human) (UniProt P29590); experiment: IP/MS, LZTR1 R810W-FLAG, U87
SHC1 (human) = molecular target: T3, SHC1 (human) (UniProt P29353); experiment: IP/MS, LZTR1 R810W-FLAG, U87
T3 sequence (looked up): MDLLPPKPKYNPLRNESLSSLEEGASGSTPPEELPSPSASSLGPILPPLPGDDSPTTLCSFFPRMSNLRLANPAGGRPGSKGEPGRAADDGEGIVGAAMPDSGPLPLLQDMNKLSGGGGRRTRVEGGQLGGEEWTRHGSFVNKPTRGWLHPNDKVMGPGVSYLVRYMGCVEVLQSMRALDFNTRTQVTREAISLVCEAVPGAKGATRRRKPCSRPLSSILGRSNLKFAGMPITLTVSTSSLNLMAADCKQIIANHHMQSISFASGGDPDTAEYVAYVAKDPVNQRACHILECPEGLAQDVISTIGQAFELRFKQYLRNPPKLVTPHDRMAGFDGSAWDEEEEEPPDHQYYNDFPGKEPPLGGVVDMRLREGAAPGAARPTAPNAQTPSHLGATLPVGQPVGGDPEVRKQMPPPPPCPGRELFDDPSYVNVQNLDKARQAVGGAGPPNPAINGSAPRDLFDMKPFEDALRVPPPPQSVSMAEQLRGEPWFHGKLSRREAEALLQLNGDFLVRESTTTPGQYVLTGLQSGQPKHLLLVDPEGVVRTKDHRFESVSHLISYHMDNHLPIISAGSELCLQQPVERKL

TMC04 (human) = molecular target: T4, TMC04 (human) (UniProt Q5TGY1); experiment: IP/MS, LZTR1 R810W-FLAG, U87
T4 sequence (looked up): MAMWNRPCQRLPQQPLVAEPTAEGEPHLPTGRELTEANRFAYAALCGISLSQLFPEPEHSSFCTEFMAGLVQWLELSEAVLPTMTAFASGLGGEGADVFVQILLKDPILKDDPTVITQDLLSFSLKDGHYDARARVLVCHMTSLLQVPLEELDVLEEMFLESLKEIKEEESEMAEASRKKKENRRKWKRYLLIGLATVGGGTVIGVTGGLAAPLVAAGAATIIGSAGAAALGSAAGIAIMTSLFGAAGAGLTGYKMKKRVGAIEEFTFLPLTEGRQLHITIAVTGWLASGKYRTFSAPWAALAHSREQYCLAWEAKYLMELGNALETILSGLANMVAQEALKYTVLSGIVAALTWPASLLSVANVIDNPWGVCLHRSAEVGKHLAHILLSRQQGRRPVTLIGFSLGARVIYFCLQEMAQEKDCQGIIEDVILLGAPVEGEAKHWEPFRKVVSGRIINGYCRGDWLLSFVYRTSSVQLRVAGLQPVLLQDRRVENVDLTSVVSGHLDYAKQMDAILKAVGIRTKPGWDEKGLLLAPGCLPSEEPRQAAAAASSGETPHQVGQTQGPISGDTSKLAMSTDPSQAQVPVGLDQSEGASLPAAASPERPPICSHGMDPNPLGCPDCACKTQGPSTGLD

VCAN (human) = VCAN (human) (UniProt P13611); experiment: IP/MS, LZTR1 R810W-FLAG, U87

Measured: binding

FLAG-RIT1 (from UniProt Q92963 1-219)
binds: LZTR1-GFP (human)

LZTR1 R810W-FLAG (from UniProt Q8N653 1-840)
not listed: LZTR1-GFP (human)
binds: all other assays above

From US20250262210A1, “LZTR1 MUTANT TUMORS AND METHODS THEREOF” (The Trustees of Columbia University in the City of New York, priority 2022, published 2025)
